The list shows a part of the results.
target: OsWRKY34 (Oryza sativa, UniProt Q0JBA9 1-250); experiment: protein-binding microarray (RPBM); PBS, 2% BSA, 51.3 ng/ul salmon testes DNA, 50 uM zinc acetate, 200 nM TF, 25 C, 1 h; high values mean tight binding; conditions: protein: recombinant; tags: N-terminal polyhistidine and DsRed monomer fusion (pET32a); label: CyDye5-dUTP incorporated in the synthesized complementary strand; 3' TTTTT single-stranded linker to array surface; dsDNA, one strand shown
How it was run: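 Transcription factors were made in E. coli BL21-CodonPlus as N-terminal fusions to a polyhistidine tag and DsRed, then purified on Ni–NTA. After primer extension with Cy5-dUTP and blocking with 2% BSA, a custom Agilent array was exposed for 1 h at 25 °C to 200 nM protein in PBS, 2% BSA, salmon testes DNA and 50 µM zinc acetate. Washed arrays were scanned on an Axon 4000B, and the binding signal is per-feature fluorescence intensity in arbitrary units.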

Amino acid sequences for entries named in this document (tags omitted).
UniProt Q0JBA9, entry or part of it: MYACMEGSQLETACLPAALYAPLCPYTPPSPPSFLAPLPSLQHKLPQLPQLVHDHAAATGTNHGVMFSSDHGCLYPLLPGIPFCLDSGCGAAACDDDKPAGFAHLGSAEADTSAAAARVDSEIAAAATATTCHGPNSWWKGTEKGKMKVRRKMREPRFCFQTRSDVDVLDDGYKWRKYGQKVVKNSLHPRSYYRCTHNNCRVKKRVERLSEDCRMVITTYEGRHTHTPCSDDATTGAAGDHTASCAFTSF

**Q.** Which binding signal does the source give for “CACGCACGCCTCGCCACCCCTGCCTTTTTTTACATGACGACGGAGTCACCTAGTGCAG” here?
**A.** 11400 fluorescence intensity (a.u.)

**Q.** For “TTTTTTTCTCTTTCTTTTTTCTTTTCTTCGTTTTCTTTCACGGAGTCACCTAGTGCAG”, which binding signal is on record?
**A.** 9230 fluorescence intensity (a.u.)

**Q.** For “CCTACTCAGTGTTCACGGATAACCCGGTCTGACTTTTCATCGGAGTCACCTAGTGCAG”, which binding signal is on record?
**A.** 8110 fluorescence intensity (a.u.)

**Q.** “CTCTTCTCTTGGTTTGGGGTGTCACGACTCACGACCTGCCCGGAGTCACCTAGTGCAG” was tested. Which binding signal did it give?
**A.** 8460 fluorescence intensity (a.u.)

**Q.** “TGCAATGTCTCCATTCCTTTTCATGTCTCACTGCAATTTGCGGAGTCACCTAGTGCAG” was tested. Which binding signal did it give?
**A.** 9400 fluorescence intensity (a.u.)

**Q.** With “CTCTATGCATGTGCCCAAAGATTCGATGTAATGTTTTTTCCGGAGTCACCTAGTGCAG” as the sequence, how does the binding signal read?
**A.** 8570 fluorescence intensity (a.u.)

**Q.** “CTTCCACCGCATCGTCGCTCGCCGGTGAGCATCCCTCCCTCGGAGTCACCTAGTGCAG” was tested. Which binding signal did it give?
**A.** 9620 fluorescence intensity (a.u.)

**Q.** With “CATCCTTTGATGGTGTTGATTCCGATTTTATCCTACGTGACGGAGTCACCTAGTGCAG” as the sequence, how does the binding signal read?
**A.** 9470 fluorescence intensity (a.u.)

**Q.** Which binding signal does the source give for “ATATAGGGGTTGGTCTTCCACGTCAAATTTGGGGTAGATACGGAGTCACCTAGTGCAG” here?
**A.** 10200 fluorescence intensity (a.u.)

**Q.** “TCTGCTCAGGTTGTTGTTTTCACCATTTTCCTTACTGTAGCGGAGTCACCTAGTGCAG” was tested. Which binding signal did it give?
**A.** 12100 fluorescence intensity (a.u.)

**Q.** Which binding signal does the source give for “TGAGTTTCTGTGTCCAACTTTAACTGTCCGTCTTATATGACGGAGTCACCTAGTGCAG” here?
**A.** 8120 fluorescence intensity (a.u.)

**Q.** “ATCATGCGCTAATAGCTTCCTTGTTTTTGTGTGCCCACTTCGGAGTCACCTAGTGCAG” was tested. Which binding signal did it give?
**A.** 15200 fluorescence intensity (a.u.)

**Q.** Which binding signal does the source give for “CACTACTCCCATCACGGCACACTGATTCACAGCACACAGTCGGAGTCACCTAGTGCAG” here?
**A.** 9540 fluorescence intensity (a.u.)

**Q.** With “TCACCTGCCTCGCTCGCTTCGTCGCTTCCAGCTTCACGCACGGAGTCACCTAGTGCAG” as the sequence, how does the binding signal read?
**A.** 10200 fluorescence intensity (a.u.)

**Q.** Which binding signal does the source give for “AACCTTTCATTATTTATGTCCATGTACTCCCTGTTGAATTCGGAGTCACCTAGTGCAG” here?
**A.** 11600 fluorescence intensity (a.u.)

**Q.** Which binding signal does the source give for “TATTTCCCCGGTGAAACGCACGCGATCCTGACAGTATATTCGGAGTCACCTAGTGCAG” here?
**A.** 8370 fluorescence intensity (a.u.)

**Q.** “CTCGTTATATCTATTATAAATTTTTTAATATACATGTTATCGGAGTCACCTAGTGCAG” was tested. Which binding signal did it give?
**A.** 9040 fluorescence intensity (a.u.)

**Q.** With “CATTTTTTTTCATATGCCCTGTTGCTCACTATGTTTGTCACGGAGTCACCTAGTGCAG” as the sequence, how does the binding signal read?
**A.** 10300 fluorescence intensity (a.u.)

**Q.** Which binding signal does the source give for “ATTGTCTATTGTTTATATGCTCATTTTACTACCAAATTTACGGAGTCACCTAGTGCAG” here?
**A.** 8780 fluorescence intensity (a.u.)

**Q.** With “ATCTGGTTTCTTAATGCTTGTATCCAATCTCAAAAGTTCTCGGAGTCACCTAGTGCAG” as the sequence, how does the binding signal read?
**A.** 8250 fluorescence intensity (a.u.)

**Q.** Which binding signal does the source give for “TCTGTGGTGCCTTCTAATCCAATTTTCTGACTTTCTTGCTCGGAGTCACCTAGTGCAG” here?
**A.** 12400 fluorescence intensity (a.u.)

**Q.** “TTCTACAGGAGTATCATCATCTTTGTGTTCTGGCTCCTGTCGGAGTCACCTAGTGCAG” was tested. Which binding signal did it give?
**A.** 9040 fluorescence intensity (a.u.)

**Q.** “GAGGGGAAATGTCTTCAGGGGTTGGAAAGGAGGTTGTAGACGGAGTCACCTAGTGCAG” was tested. Which binding signal did it give?
**A.** 11100 fluorescence intensity (a.u.)

**Q.** With “CGCCCTGTATTGTTGGCGGGGTTCTCTCTGCATCTCTTCTCGGAGTCACCTAGTGCAG” as the sequence, how does the binding signal read?
**A.** 8340 fluorescence intensity (a.u.)

**Q.** With “ACCAGGTTATGATCTACTTTTATTTTGTTTTCTAAATATTCGGAGTCACCTAGTGCAG” as the sequence, how does the binding signal read?
**A.** 8460 fluorescence intensity (a.u.)

**Q.** How did the binding signal turn out when “GGCCAAAATGACAAAGTGGTGGTGAGTGCGTATTTCATATCGGAGTCACCTAGTGCAG” was run?
**A.** 9190 fluorescence intensity (a.u.)

**Q.** How did the binding signal turn out when “TTCCCCGGCAGGAAATTCGATGTTTTCGTCTCTAGGTCCACGGAGTCACCTAGTGCAG” was run?
**A.** 9910 fluorescence intensity (a.u.)

**Q.** With “TTCCTCATCCCACGGCGCCCATGCCCACCACCTGTTCGACCGGAGTCACCTAGTGCAG” as the sequence, how does the binding signal read?
**A.** 11100 fluorescence intensity (a.u.)

**Q.** “GGGGTAGAATCTCTCTCTCGGTGCCACAGCTTTAAAGTTACGGAGTCACCTAGTGCAG” was tested. Which binding signal did it give?
**A.** 10700 fluorescence intensity (a.u.)

**Q.** For “TGTCCATGGTACTGTGTTACTCTTTTACTCTTCAACCAAGCGGAGTCACCTAGTGCAG”, which binding signal is on record?
**A.** 10100 fluorescence intensity (a.u.)

**Q.** For “AGCGCACGGCGCCGCGCCGTCATCTCGTGCTTGTATCCTTCGGAGTCACCTAGTGCAG”, which binding signal is on record?
**A.** 10300 fluorescence intensity (a.u.)

**Q.** For “GCTGCCACCTGTCACCTCCTGTTAACGACCAAAATTGGTACGGAGTCACCTAGTGCAG”, which binding signal is on record?
**A.** 8090 fluorescence intensity (a.u.)

**Q.** For “CCCCGCTGTCTGAGGGACTGCCTCTTCGGTGGGCGGGGAACGGAGTCACCTAGTGCAG”, which binding signal is on record?
**A.** 8160 fluorescence intensity (a.u.)

**Q.** How did the binding signal turn out when “GCTATTATTCGTCTCGCTTCCCATATAACCACAGGTATAACGGAGTCACCTAGTGCAG” was run?
**A.** 8830 fluorescence intensity (a.u.)

**Q.** With “GGCACTACACTAAATGTTGTTTTCTTCTCTCTATTTTCTTCGGAGTCACCTAGTGCAG” as the sequence, how does the binding signal read?
**A.** 13700 fluorescence intensity (a.u.)

**Q.** With “ATCTTACGCTGGACAGCATCCACCAACATCTCTCTCTCTTCGGAGTCACCTAGTGCAG” as the sequence, how does the binding signal read?
**A.** 8280 fluorescence intensity (a.u.)

**Q.** How did the binding signal turn out when “CCGTGTTGTTCATCGTGCACTCGCCTCCGTCGCTTGCGAACGGAGTCACCTAGTGCAG” was run?
**A.** 9800 fluorescence intensity (a.u.)

**Q.** How did the binding signal turn out when “CTTCGCCCACCCGCTTGTCACGCACGAGCCCGGCCAGCGTCGGAGTCACCTAGTGCAG” was run?
**A.** 8360 fluorescence intensity (a.u.)

**Q.** With “GCCTCCGCTTCCGCTCCGCCGCCGCCTGCCTCGCCGCGCCCGGAGTCACCTAGTGCAG” as the sequence, how does the binding signal read?
**A.** 9800 fluorescence intensity (a.u.)

**Q.** With “ACCACTCCACGCGCCTATATCACCACACGTCACGCTTCCACGGAGTCACCTAGTGCAG” as the sequence, how does the binding signal read?
**A.** 16700 fluorescence intensity (a.u.)

**Q.** For “CAAGGGAGGTCGGGGAGGATGATTGGGTTGGGTAGAGCGGCGGAGTCACCTAGTGCAG”, which binding signal is on record?
**A.** 12200 fluorescence intensity (a.u.)

**Q.** “ACTAATTGTGGCCATGTTCATCGTGCAGTTCCTTGGATCTCGGAGTCACCTAGTGCAG” was tested. Which binding signal did it give?
**A.** 8880 fluorescence intensity (a.u.)

**Q.** “AGTGGCATTCACATCCCATTTATACATTTTGTCTCAGAAACGGAGTCACCTAGTGCAG” was tested. Which binding signal did it give?
**A.** 8180 fluorescence intensity (a.u.)

**Q.** “CCATCCACTTGCAATATCTCTCTTTCTCGCTCGCTCTCGCCGGAGTCACCTAGTGCAG” was tested. Which binding signal did it give?
**A.** 8320 fluorescence intensity (a.u.)

**Q.** With “TACACTAGCACACACTACATACAATCTTCTTCTTCTTCTTCGGAGTCACCTAGTGCAG” as the sequence, how does the binding signal read?
**A.** 8780 fluorescence intensity (a.u.)

**Q.** With “GGATTTGGCCATTTCTTGCCTCGTGTCGTTGGCAGAGACCCGGAGTCACCTAGTGCAG” as the sequence, how does the binding signal read?
**A.** 8060 fluorescence intensity (a.u.)

**Q.** Which binding signal does the source give for “ATGGTTTCTGTCCGTTTCCGTACCGTTTTCACCCCTAATTCGGAGTCACCTAGTGCAG” here?
**A.** 8310 fluorescence intensity (a.u.)

**Q.** How did the binding signal turn out when “TAGTCCATTCCGTTTCAAATTATTTGTGGTTCTACATTTTCGGAGTCACCTAGTGCAG” was run?
**A.** 11800 fluorescence intensity (a.u.)

**Q.** Which binding signal does the source give for “TGCCAATTTTGATGGGGCCTTTTTTTTTATTACTATTTCTCGGAGTCACCTAGTGCAG” here?
**A.** 8920 fluorescence intensity (a.u.)

**Q.** With “TCTCGTTTCCTTGCACGTAAGCCGCGCCCTTTTGCCTTGCCGGAGTCACCTAGTGCAG” as the sequence, how does the binding signal read?
**A.** 8530 fluorescence intensity (a.u.)

**Q.** With “TTTCACTGCCATCAACTTCATCACATCGATCTCCTCCTGACGGAGTCACCTAGTGCAG” as the sequence, how does the binding signal read?
**A.** 8050 fluorescence intensity (a.u.)

**Q.** “CCTTTGCTCTTTCCGCTAATAGCGTGTACATCCCTGTTAACGGAGTCACCTAGTGCAG” was tested. Which binding signal did it give?
**A.** 9500 fluorescence intensity (a.u.)

**Q.** With “ACCCGTCTTGTTCTCACCGACGACGCGCTGGCATGTATTTCGGAGTCACCTAGTGCAG” as the sequence, how does the binding signal read?
**A.** 9120 fluorescence intensity (a.u.)

**Q.** With “ATATGTTTGACCGTTCGTCTTATTCAAAAACTTTTGTGAACGGAGTCACCTAGTGCAG” as the sequence, how does the binding signal read?
**A.** 8180 fluorescence intensity (a.u.)
